Article PMC6510286
Results are given in words; binding and its absence hold for the method and conditions named. In cells and extracts the contact can be indirect. Some entries that bind do so weakly or less than the wild type.

Amino acid sequences for entries named in this document (tags omitted).
UniProt Q13547: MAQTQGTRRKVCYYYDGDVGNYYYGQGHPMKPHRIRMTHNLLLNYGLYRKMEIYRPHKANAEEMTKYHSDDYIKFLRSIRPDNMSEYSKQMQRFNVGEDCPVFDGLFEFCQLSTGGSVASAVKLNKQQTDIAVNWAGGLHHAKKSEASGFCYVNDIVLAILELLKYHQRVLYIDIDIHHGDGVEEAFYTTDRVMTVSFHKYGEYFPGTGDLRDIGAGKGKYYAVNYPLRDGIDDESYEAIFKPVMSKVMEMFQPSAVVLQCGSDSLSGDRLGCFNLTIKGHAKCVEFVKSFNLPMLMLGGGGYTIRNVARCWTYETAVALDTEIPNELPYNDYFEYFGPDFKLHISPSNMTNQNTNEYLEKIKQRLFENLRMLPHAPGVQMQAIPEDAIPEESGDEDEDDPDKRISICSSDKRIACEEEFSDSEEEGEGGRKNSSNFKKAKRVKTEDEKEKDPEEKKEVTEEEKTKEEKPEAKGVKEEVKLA
UniProt Q93009: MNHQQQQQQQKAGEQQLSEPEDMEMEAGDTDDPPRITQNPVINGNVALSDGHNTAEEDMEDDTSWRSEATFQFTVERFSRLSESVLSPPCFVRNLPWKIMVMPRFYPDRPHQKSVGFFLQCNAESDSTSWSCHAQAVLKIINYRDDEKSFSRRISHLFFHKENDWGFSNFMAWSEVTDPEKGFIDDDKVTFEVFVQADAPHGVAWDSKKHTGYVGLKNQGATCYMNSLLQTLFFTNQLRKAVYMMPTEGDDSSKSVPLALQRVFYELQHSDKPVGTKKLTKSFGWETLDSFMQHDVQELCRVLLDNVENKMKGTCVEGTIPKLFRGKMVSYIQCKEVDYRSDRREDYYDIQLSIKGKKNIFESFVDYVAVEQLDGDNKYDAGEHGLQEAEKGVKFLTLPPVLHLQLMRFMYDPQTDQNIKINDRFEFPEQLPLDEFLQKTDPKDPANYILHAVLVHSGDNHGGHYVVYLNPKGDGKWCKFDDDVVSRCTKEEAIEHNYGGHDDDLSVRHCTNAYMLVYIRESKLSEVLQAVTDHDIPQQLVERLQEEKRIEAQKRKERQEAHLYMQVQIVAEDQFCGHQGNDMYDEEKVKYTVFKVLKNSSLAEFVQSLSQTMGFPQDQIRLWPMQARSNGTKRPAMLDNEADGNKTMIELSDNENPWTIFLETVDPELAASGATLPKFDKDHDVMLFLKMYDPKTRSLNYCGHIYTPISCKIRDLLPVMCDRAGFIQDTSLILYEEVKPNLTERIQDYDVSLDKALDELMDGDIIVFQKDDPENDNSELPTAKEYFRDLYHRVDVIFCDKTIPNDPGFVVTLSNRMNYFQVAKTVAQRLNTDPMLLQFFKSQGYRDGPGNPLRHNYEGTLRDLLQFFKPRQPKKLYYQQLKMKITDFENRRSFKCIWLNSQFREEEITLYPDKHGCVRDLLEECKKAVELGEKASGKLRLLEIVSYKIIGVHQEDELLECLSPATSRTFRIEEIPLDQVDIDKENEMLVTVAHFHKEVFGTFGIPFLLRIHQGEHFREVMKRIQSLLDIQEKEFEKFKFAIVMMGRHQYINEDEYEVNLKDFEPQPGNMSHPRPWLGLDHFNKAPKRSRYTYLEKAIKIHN
UniProt Q15910: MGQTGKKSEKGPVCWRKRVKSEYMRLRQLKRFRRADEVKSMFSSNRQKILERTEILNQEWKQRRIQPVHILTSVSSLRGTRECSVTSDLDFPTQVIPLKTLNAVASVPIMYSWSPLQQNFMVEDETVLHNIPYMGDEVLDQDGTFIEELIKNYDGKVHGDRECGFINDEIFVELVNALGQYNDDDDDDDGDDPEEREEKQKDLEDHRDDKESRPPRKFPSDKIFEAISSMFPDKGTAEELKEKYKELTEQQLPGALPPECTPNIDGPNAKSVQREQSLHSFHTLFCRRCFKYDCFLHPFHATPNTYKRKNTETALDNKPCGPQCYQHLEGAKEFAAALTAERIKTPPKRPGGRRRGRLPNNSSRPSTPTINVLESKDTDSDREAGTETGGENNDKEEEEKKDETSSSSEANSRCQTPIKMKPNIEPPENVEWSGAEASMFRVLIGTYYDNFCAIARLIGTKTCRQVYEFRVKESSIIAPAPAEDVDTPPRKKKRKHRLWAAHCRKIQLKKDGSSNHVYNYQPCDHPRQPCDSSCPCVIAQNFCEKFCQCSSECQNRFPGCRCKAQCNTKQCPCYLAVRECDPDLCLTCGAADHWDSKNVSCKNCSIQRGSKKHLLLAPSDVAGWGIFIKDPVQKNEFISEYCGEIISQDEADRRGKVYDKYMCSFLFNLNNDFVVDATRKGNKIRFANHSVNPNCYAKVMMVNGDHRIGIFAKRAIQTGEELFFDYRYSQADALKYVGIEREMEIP
UniProt Q15796: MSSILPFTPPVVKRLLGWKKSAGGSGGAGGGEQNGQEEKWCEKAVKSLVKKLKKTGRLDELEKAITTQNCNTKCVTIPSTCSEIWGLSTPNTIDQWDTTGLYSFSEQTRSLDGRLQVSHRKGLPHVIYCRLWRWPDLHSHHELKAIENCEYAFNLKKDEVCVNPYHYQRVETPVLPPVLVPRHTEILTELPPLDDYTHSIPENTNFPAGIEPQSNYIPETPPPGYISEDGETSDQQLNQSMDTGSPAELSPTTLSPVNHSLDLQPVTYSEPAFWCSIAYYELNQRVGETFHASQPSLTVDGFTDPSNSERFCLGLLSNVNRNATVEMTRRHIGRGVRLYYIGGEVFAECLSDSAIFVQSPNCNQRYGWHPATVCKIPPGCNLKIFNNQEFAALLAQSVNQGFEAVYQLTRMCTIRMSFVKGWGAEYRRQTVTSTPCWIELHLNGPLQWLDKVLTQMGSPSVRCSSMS
UniProt Q13485: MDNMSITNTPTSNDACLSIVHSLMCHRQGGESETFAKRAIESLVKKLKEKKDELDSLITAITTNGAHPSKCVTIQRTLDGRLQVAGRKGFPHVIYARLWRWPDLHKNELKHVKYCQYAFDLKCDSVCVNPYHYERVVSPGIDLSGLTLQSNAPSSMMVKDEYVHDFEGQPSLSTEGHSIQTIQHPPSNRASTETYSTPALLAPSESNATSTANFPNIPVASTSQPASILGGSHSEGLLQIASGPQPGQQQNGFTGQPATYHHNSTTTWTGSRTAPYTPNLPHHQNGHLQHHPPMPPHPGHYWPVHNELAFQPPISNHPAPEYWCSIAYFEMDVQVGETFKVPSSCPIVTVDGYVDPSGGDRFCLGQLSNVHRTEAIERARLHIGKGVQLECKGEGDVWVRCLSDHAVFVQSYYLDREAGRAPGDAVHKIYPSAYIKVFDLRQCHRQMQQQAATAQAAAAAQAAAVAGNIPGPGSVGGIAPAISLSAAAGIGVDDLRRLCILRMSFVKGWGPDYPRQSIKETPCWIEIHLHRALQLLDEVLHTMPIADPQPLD
UniProt P35222: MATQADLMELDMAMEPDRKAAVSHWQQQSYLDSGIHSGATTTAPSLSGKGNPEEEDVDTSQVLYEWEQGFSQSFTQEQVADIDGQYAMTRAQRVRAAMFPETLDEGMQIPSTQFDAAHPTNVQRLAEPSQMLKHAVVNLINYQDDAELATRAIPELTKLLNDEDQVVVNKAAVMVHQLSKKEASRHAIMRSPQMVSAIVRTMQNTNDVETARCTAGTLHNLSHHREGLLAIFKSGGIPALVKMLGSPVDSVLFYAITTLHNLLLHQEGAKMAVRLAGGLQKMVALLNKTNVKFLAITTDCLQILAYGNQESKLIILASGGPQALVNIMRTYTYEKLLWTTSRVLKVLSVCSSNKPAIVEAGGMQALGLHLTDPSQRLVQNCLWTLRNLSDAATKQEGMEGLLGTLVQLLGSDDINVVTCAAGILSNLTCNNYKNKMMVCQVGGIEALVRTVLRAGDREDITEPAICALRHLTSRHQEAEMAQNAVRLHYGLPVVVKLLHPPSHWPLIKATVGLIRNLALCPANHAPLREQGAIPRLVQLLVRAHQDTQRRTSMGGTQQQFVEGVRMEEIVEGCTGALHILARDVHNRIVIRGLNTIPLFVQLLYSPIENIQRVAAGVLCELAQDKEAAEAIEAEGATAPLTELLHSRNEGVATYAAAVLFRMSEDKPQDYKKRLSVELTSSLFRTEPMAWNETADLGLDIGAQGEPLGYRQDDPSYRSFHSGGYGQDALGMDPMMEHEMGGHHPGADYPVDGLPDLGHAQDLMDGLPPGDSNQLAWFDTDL

What was measured:
[1] = target: HDAC1 (human (endogenous in HepG2 and SW480)) (UniProt Q13547); assay: co-IP; endogenous proteins from HepG2 nuclear extracts; antibody against EZH2, LSD1 or HDAC1 on protein G-sepharose, overnight at 4°C, washed in TBST (pH 7.2, 25 mM Tris-HCl, 150 mM NaCl, 0.5% Tween-20); IgG as negative control; immunoblot
[2] = target: USP7 (human (endogenous, cell line not stated)) (UniProt Q93009); assay: co-IP; endogenous proteins from cell lysates (cell line not stated); USP7 antibody or EZH2 antibody; cells without and with shUSP7 or shEZH2 knock-down; IgG as negative control; immunoblot
[3] = target: EZH2 (human (endogenous in HepG2 and SW480)) (UniProt Q15910); assay: co-IP; endogenous proteins from SW480 cells; IgG as negative control; immunoblot
[4] = target: EZH2 (human (endogenous in HepG2 and SW480)) (UniProt Q15910); assay: co-IP; endogenous proteins from HepG2 nuclear extracts; antibody against EZH2, LSD1 or HDAC1 on protein G-sepharose, overnight at 4°C, washed in TBST (pH 7.2, 25 mM Tris-HCl, 150 mM NaCl, 0.5% Tween-20); IgG as negative control; immunoblot
[5] = target: EZH2 (human (endogenous in HepG2 and SW480)) (UniProt Q15910); assay: co-IP; endogenous proteins from cell lysates (cell line not stated); USP7 antibody or EZH2 antibody; cells without and with shUSP7 or shEZH2 knock-down; IgG as negative control; immunoblot

For SMAD2 (from UniProt Q15796 1-467), which binding [1] is on record?
The binding was “binds”.

What about the binding [2] of the same substance?
The binding was “binds”.

How did the binding [1] turn out when SMAD4 (from UniProt Q13485 1-552) was run?
The binding was “binds”.

What about the binding [2] of the same substance?
Its binding is “binds”.

With β-CATENIN (from UniProt P35222 1-781) as the substance, how does the binding [3] read?
Its binding is “binds”.

What about the binding [1] of the same substance?
The binding was “binds”.

And the binding [4]?
The binding was “binds”.

What about the binding [5] of the same substance?
Its binding is “binds”.
